Test results as given in article doi:10.1101/740472.
Read-outs that look alike come from different tables or passages of the source. These are yes or no findings as the source states them, for the method shown. Binding seen in cells or lysates may run through a third protein. Some binding calls cover weakened binding; strength is not graded here. Where a sequence is shown, tags or fusion partners need not be part of it.

T1: HA-tagged human ISLR (hISLR-HA) (human) (UniProt O14498)
T1 sequence: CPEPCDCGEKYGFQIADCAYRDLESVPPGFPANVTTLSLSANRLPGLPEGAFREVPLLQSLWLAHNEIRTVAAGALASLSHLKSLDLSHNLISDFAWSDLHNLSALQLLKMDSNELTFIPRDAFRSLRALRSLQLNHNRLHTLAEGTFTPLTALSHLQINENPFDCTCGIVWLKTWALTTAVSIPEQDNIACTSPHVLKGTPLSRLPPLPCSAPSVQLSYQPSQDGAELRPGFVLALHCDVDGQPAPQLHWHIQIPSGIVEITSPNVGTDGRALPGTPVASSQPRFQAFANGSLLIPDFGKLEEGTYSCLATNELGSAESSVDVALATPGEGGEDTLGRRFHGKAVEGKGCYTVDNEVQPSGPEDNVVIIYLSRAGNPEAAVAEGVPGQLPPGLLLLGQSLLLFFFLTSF


Legend:
[1] = molecular target: T1, HA-tagged human ISLR (hISLR-HA) (human); assay: co-IP
[2] = molecular target: T1, HA-tagged human ISLR (hISLR-HA) (human); assay: co-IP; remark: listed apart in the source

| binding [1] | binding [2] | Molecule |
| --- | --- | --- |
| binds | – | FAT1 (transmembrane protocadherin), endogenous (from UniProt Q14517 22-4588) |
| – | binds | Flag-tagged FAT1 segment, Cadherin domain 13-15 (amino acids 1457-1765) (domain or fragment, UniProt Q14517 1457-1765) STSKYEVVIPEDTAPETEILQISAVDQDEKNKLIYTLQSSRDPLSLKKFRLDPATGSLYTSEKLDHEAVHQHTLTVMVRDQDVPVKRNFARIVVNVSDTNDHAPWFTASSYKGRVYESAAVGSVVLQVTALDKDKGKNAEVLYSIESGNIGNSFMIDPVLGSIKTAKELDRSNQAEYDLMVKATDKGSPPMSEITSVRIFVTIADNASPKFTSKEYSVELSETVSIGSFVGMVTAHSQSSVVYEIKDGNTGDAFDINPHSGTIITQKALDFETLPIYTLIIQGTNMAGLSTNTTVLVHLQDENDNAPVF |
